Data taken from the supplement of paper PMC8728848.
Some of the results follow.

Columns and labels:
Assay in all cases: glycan array binding signal (z-score within array); higher = stronger binding
Settings in all cases: glycan notation: IUPAC condensed, linker removed
[1] = biological target: Fuc(a1-2)Gal
In short: (§1)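 Negative Z-scores can be read as non-binding. The Z-score is calculated within each array and then averaged across arrays of one protein sequence at different concentrations or buffers and across linkers. Arrays, 3228 in all, were curated from the Consortium for Functional Glycomics database and kept only where the protein sequence was available.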

[2] = biological target: Fuc(a1-2)Gal(b1-3)GalNAc
In short: as §1

[3] = biological target: Fuc(a1-2)Gal(b1-3)GalNAc(a1-3)[Fuc(a1-2)]Gal(b1-4)Glc
In short: as §1

[4] = biological target: Fuc(a1-2)Gal(b1-3)GalNAc(a1-3)[Fuc(a1-2)]Gal(b1-4)GlcNAc
In short: as §1

[5] = biological target: Fuc(a1-2)Gal(b1-3)GalNAc(b1-3)Gal
In short: as §1

[6] = biological target: Fuc(a1-2)Gal(b1-3)GalNAc(b1-3)Gal(a1-4)Gal(b1-4)Glc
In short: as §1

[7] = biological target: Fuc(a1-2)Gal(b1-3)GalNAc(b1-4)[Neu5Ac(a2-3)]Gal(b1-4)Glc
In short: as §1

[8] = biological target: Fuc(a1-2)Gal(b1-3)GlcNAc
In short: as §1

[9] = biological target: Fuc(a1-2)Gal(b1-3)GlcNAc(b1-2)Man(a1-3)[Fuc(a1-2)Gal(b1-3)GlcNAc(b1-2)Man(a1-6)]Man(b1-4)GlcNAc(b1-4)GlcNAc
In short: as §1

[10] = biological target: Fuc(a1-2)Gal(b1-3)GlcNAc(b1-2)Man(a1-3)[Fuc(a1-2)Gal(b1-3)GlcNAc(b1-2)Man(a1-6)]Man(b1-4)GlcNAc(b1-4)[Fuc(a1-6)]GlcNAc
In short: as §1

[11] = biological target: Fuc(a1-2)Gal(b1-3)GlcNAc(b1-3)Gal(b1-4)Glc
In short: as §1

[12] = biological target: Fuc(a1-2)Gal(b1-3)GlcNAc(b1-3)GalNAc
In short: as §1

[13] = biological target: Fuc(a1-2)Gal(b1-3)GlcNAc(b1-3)[Fuc(a1-2)Gal(b1-3)GlcNAc(b1-6)]GalNAc
In short: as §1

[14] = biological target: Fuc(a1-2)Gal(b1-3)GlcNAc(b1-3)[Gal(b1-4)GlcNAc(b1-6)]Gal(b1-4)Glc
In short: as §1

[15] = biological target: Fuc(a1-2)Gal(b1-3)GlcNAc(b1-3)[Neu5Ac(a2-6)Gal(b1-4)GlcNAc(b1-6)]Gal(b1-4)Glc
In short: as §1

[16] = biological target: Fuc(a1-2)Gal(b1-3)GlcNAc6S
In short: as §1

[17] = biological target: Fuc(a1-2)Gal(b1-3)[Fuc(a1-4)]GlcNAc
In short: as §1

[18] = biological target: Fuc(a1-2)Gal(b1-3)[Fuc(a1-4)]GlcNAc(b1-2)Man(a1-3)[Fuc(a1-2)Gal(b1-3)[Fuc(a1-4)]GlcNAc(b1-2)Man(a1-3)]Man(b1-4)GlcNAc(b1-4)GlcNAc
In short: as §1

[19] = biological target: Fuc(a1-2)Gal(b1-3)[Fuc(a1-4)]GlcNAc(b1-2)Man(a1-3)[Fuc(a1-2)Gal(b1-3)[Fuc(a1-4)]GlcNAc(b1-2)Man(a1-6)]Man(b1-4)GlcNAc(b1-4)[Fuc(a1-6)]GlcNAc(b1-4)[Fuc(a1-6)]GlcNAc
In short: as §1

[20] = biological target: Fuc(a1-2)Gal(b1-3)[Fuc(a1-4)]GlcNAc(b1-3)[Fuc(a1-3)[Gal(b1-4)]GlcNAc(b1-6)]Gal(b1-4)Glc
In short: as §1

[21] = biological target: Fuc(a1-2)Gal(b1-3)[Fuc(a1-4)]GlcNAc(b1-3)[Gal(b1-4)GlcNAc(b1-6)]Gal(b1-4)Glc
In short: as §1

[22] = biological target: Fuc(a1-2)Gal(b1-4)Fuc(a1-3)]GlcNAc(b1-2)Man(a1-3)[Fuc(a1-2)Gal(b1-4)[Fuc(a1-3)]GlcNAc(b1-2)Man(a1-6)]Man(b1-4)GlcNAc(b1-4)GlcNAc
In short: as §1

[23] = biological target: Fuc(a1-2)Gal(b1-4)Glc
In short: as §1

[24] = biological target: Fuc(a1-2)Gal(b1-4)Glc6S
In short: as §1

[25] = biological target: Fuc(a1-2)Gal(b1-4)GlcNAc
In short: as §1

[26] = biological target: Fuc(a1-2)Gal(b1-4)GlcNAc(b1-2)Man
In short: as §1

[27] = biological target: Fuc(a1-2)Gal(b1-4)GlcNAc(b1-2)Man(a1-3)[Fuc(a1-2)Gal(b1-4)GlcNAc(b1-2)Man(a1-6)]Man(b1-4)GlcNAc(b1-4)GlcNAc
In short: as §1

[28] = biological target: Fuc(a1-2)Gal(b1-4)GlcNAc(b1-2)Man(a1-3)[Fuc(a1-2)Gal(b1-4)GlcNAc(b1-2)Man(a1-6)]Man(b1-4)GlcNAc(b1-4)[Fuc(a1-6)]GlcNAc
In short: as §1

[29] = biological target: Fuc(a1-2)Gal(b1-4)GlcNAc(b1-2)[Fuc(a1-2)Gal(b1-4)GlcNAc(b1-4)]Man(a1-3)[Fuc(a1-2)Gal(b1-4)GlcNAc(b1-2)Man(a1-6)]Man(b1-4)GlcNAc(b1-4)GlcNAc
In short: as §1

[30] = biological target: Fuc(a1-2)Gal(b1-4)GlcNAc(b1-3)Gal(b1-4)GlcNAc
In short: as §1

B1: CD34 (Homo sapiens), P28906 (protein)
chain: MGSSHHHHHHSSGLVPRGSHMSTSLATSPTKPYTSSSPILSDIKAEIKCSGIREVKLTQGICLEQNKTSSCAEFKKDRGEGLARVLCGEEQADADAGAQVCSLLLAQSEVRPQCLLLVLANRTEISSKLQLMKKHQSDLKKLGILDFTEQDVASHQSYSQKT
glycan array binding signal (z-score) [1]: 1.08 | glycan array binding signal (z-score) [2]: -0.39 | glycan array binding signal (z-score) [3]: -1.43 | glycan array binding signal (z-score) [4]: 0.537 | glycan array binding signal (z-score) [5]: 0.62 | glycan array binding signal (z-score) [6]: 0.043 | glycan array binding signal (z-score) [7]: 0.184 | glycan array binding signal (z-score) [8]: -0.415 | glycan array binding signal (z-score) [9]: 0.966 | glycan array binding signal (z-score) [10]: -0.885 | glycan array binding signal (z-score) [11]: -0.338 | glycan array binding signal (z-score) [12]: 0.208 | glycan array binding signal (z-score) [13]: 0.022 | glycan array binding signal (z-score) [14]: -0.908 | glycan array binding signal (z-score) [15]: -0.731 | glycan array binding signal (z-score) [16]: 0.261 | glycan array binding signal (z-score) [17]: -0.23 | glycan array binding signal (z-score) [18]: -0.119 | glycan array binding signal (z-score) [19]: 0.077 | glycan array binding signal (z-score) [20]: -0.677 | glycan array binding signal (z-score) [21]: -1.33 | glycan array binding signal (z-score) [22]: 1.89 | glycan array binding signal (z-score) [23]: -0.59 | glycan array binding signal (z-score) [24]: -0.176 | glycan array binding signal (z-score) [25]: 0.713 | glycan array binding signal (z-score) [26]: 0.472 | glycan array binding signal (z-score) [27]: -0.664 | glycan array binding signal (z-score) [28]: 0.603 | glycan array binding signal (z-score) [29]: -0.374 | glycan array binding signal (z-score) [30]: -1.49
